Experiment [1] concerns ApoE−/− mice. Kind of experiment: Atherosclerotic plaques of the aorta (en face oil red O staining) in high-fat diet ApoE−/− mice. The following applies: ATV 40 mg/kg orally once a day, 13 weeks; **P<0.01. The experiment is classed as in vivo. The protocol:
FIGS. 15-16. The sDSS1 protein inhibits the formation of atherosclerotic plaques in ApoE−/− mice. 16-week-old ApoE−/− mice were continuously injected with sDSS1 at 3 mpk or ATV at 40 mpk for 13 consecutive weeks. At the end of the injection, the aorta was dissected for oil red O staining, and the area of plaques was calculated.
Experimental animals: ApoE−/− mice, 8-week-old, male, were purchased from Nanjing Biomedical Research Institute of Nanjing University. The experimental animals were housed in an animal room for one week before the experiment.
Materials: sDSS1 protein, Atorvastatin (ATV).
Experimental method: ApoE−/− mice were fed with high-fat diet containing 0.25% cholesterol starting from the age of 9 weeks. From the 10th week of high-fat diet feeding, the mice were randomly divided into three groups according to the total cholesterol level, with 10 mice in each group. 200 μl of normal saline was intraperitoneally injected in the model group once a day, 40 mg/kg of ATV was orally given in positive drug group once a day, and 3 mg/kg of sDSS1 protein was intraperitoneally injected in sDSS1 group once a day. At the 22nd week of high-fat diet feeding, that is, the 13th week of administration, the animals were executed and dissected, and the whole aorta was separated. The separated aorta was stained with en face oil red O to evaluate the formation of atherosclerotic plaques.

In experiment [2] the test system is ApoE−/− mice. Kind of experiment: Plasma oxLDL and LDL levels (ELISA) in ApoE−/− mice after 7 days of administration. The experiment is classed as in vivo. Here is the method: ApoE−/− mice were divided into two groups, the control group and the sDSS1 protein administration group. The control group was given 200 μl of normal saline once a day by intraperitoneal injection, and the administration group was administered the sDSS1 protein once a day according to 10 mg/kg body weight (10 mpk) or 30 mg/kg body weight (30 mpk) by intraperitoneal injection, and atorvastatin (ATV) as a positive control drug was administered per day according to 40 mg/kg body weight (40 mpk) by intraperitoneal injection for 7 consecutive days. At the end of the administration, the plasma levels of oxLDL and LDL in mice were detected.
Experimental animal: ApoE−/− mice, 8-10 weeks old, male, were purchased from Nanjing Biomedical Research Institute of Nanjing University. The animals were housed in an animal room for one week before the experiment.
Experimental materials: sDSS1 protein, oxLDL ELISA kit (Wuhan Elabscience Biotechnology Co., Ltd., Article No.: E-EL-M0066c), LDL ELISA kit (Wuhan Elabscience Biotechnology Co., Ltd., product No.: E-EL-M1363c)
Experimental method: the ApoE−/− mice were randomly divided into two groups, a control group and a sDSS1 protein group. […] The plasma oxLDL level was measured by using the oxLDL ELISA kit, and the plasma LDL level was measured by the LDL ELISA kit. […]
For orientation: In an ELISA, binding on a coated surface is turned into a signal by an enzyme label.

Entries after “also recorded” stand apart in the source; their conditions may differ.

As for `CC(C)c1c(C(=O)Nc2ccccc2)c(-c2ccccc2)c(-c2ccc(F)cc2)n1CC[C@@H](O)C[C@@H](O)CC(=O)O` [ATV, Atorvastatin, reference compound], the “Plaque area ratio (oil red O stained area / total aortic area) vs model group” value in the experiment with ApoE−/− mice [1] was “significantly smaller”. In the experiment on ApoE−/− mice [2] (ATV 40 mg/kg (40 mpk) per day intraperitoneal), the “Plasma oxLDL level, efficacy of the positive control compared with sDSS1” value is “similar; also recorded: same efficacy”. Moreover, in the experiment with ApoE−/− mice [2] (ATV 40 mpk per day intraperitoneal), the “Plasma oxLDL/LDL ratio, efficacy of the positive control compared with sDSS1” value is listed as “basically consistent”.

Values taken from patent US12433934B2, “Methods and compositions for preventing and treating atherosclerosis and related diseases” (Shanghai Puyou Biomedical Co., Ltd., priority 2018, dated 2025).
